Measured values: the supplement of paper PMC6078165
Values are relative to the signal before dosing, not to a vehicle control; the signal also falls without drug.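 Fibroblast labels name human fibroblasts: mostly primary ones from tissues such as uterus (C12385, HUF), lung (H6013), bone (Hs27A), adrenal (HADF) and skin (WS1), plus mammary HMF and breast cancer-associated Hs343T. The cancer cells are basal-like or mesenchymal-like triple-negative breast cancer lines. The paper calls a changed response a hit when it shifts by more than 3x the replicate standard deviation. The tissue of the other fibroblasts is not given here.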

System: MDAMB436
Experiment: relative JC-1 red fluorescence (viability) vs pre-drug, coculture with fibroblast (fraction); higher = more viable cancer cells
Procedure: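 JC-1 labelled TNBC cells cocultured 1:1 (1,500 cells each) with CellTrace Violet stained primary or stromal fibroblasts in 384-well plates in FluoroBrite medium, treated with one of 42 anticancer drugs at 0.1, 1, 10 or 100 uM. JC-1 red fluorescence (mitochondrial integrity in cancer cells only) was read by plate reader every 8 h for 72 h. Values are normalised to each well's pre-drug value. The stock of one drug was tenfold lower, so its dose labels may be too high.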

O=C1c2c(O)ccc(O)c2C(=O)c2c(NCCNCCO)ccc(NCCNCCO)c21 [Mitoxantrone]
relative JC-1 red fluorescence
Conditions | 8 h | 16 h | 24 h | 32 h | 40 h | 48 h | 56 h | 64 h | 72 h
0.1 µM, coculture fibroblast: C12385 | 0.77771 | 0.6896 | 0.65 | 0.587 | 0.546 | 0.529 | 0.514 | 0.501 | 0.494
0.1 µM, coculture fibroblast: H6013 | 0.8145 | 0.7653 | 0.74 | 0.737 | 0.716 | 0.731 | 0.703 | 0.683 | 0.647
0.1 µM, coculture fibroblast: H6019 | 0.736 | 0.636 | 0.631 | 0.576 | 0.543 | 0.525 | 0.496 | 0.476 | 0.455
0.1 µM, coculture fibroblast: H6076 | 0.743 | 0.6383 | 0.637 | 0.617 | 0.61 | 0.592 | 0.601 | 0.613 | 0.616
0.1 µM, coculture fibroblast: H6231 | 0.748 | 0.677 | 0.667 | 0.615 | 0.605 | 0.583 | 0.56 | 0.537 | 0.516
0.1 µM, coculture fibroblast: HADF | 0.791 | 0.738 | 0.744 | 0.753 | 0.758 | 0.788 | 0.754 | 0.756 | 0.72
0.1 µM, coculture fibroblast: HCFa | 0.7394 | 0.6496 | 0.6317 | 0.616 | 0.6 | 0.61 | 0.558 | 0.539 | 0.493
0.1 µM, coculture fibroblast: HCPF | 0.791 | 0.725 | 0.68684 | 0.645 | 0.625 | 0.593 | 0.564 | 0.549 | 0.524
0.1 µM, coculture fibroblast: HHSteC | 0.843 | 0.834 | 0.796 | 0.793 | 0.783 | 0.803 | 0.745 | 0.729 | 0.668
0.1 µM, coculture fibroblast: HMF | 0.7604 | 0.6627 | 0.613 | 0.5805 | 0.5657 | 0.5384 | 0.53 | 0.516 | 0.509
0.1 µM, coculture fibroblast: HPFa | 0.8048 | 0.733 | 0.7064 | 0.669 | 0.6512 | 0.664 | 0.595 | 0.568 | 0.516
0.1 µM, coculture fibroblast: HUF | 0.82 | 0.723 | 0.71 | 0.651 | 0.609 | 0.58 | 0.566 | 0.558 | 0.548
0.1 µM, coculture fibroblast: Hs5 | 0.767 | 0.71662 | 0.696 | 0.651 | 0.649 | 0.611 | 0.624 | 0.599 | 0.596
0.1 µM, coculture fibroblast: Hs27A | 0.749 | 0.669 | 0.654 | 0.6535 | 0.636 | 0.67094 | 0.63 | 0.625 | 0.5769
0.1 µM, coculture fibroblast: Hs343T | 0.775 | 0.685 | 0.656 | 0.631 | 0.611 | 0.577 | 0.564 | 0.546 | 0.529
0.1 µM, coculture fibroblast: WS1 | 0.771 | 0.675 | 0.652 | 0.589 | 0.559 | 0.552 | 0.534 | 0.517 | 0.506
1 µM, coculture fibroblast: C12385 | 0.598 | 0.596 | 0.6214 | 0.5723 | 0.5623 | 0.5535 | 0.5488 | 0.5457 | 0.5439
1 µM, coculture fibroblast: H6013 | 0.615 | 0.6327 | 0.6238 | 0.6359 | 0.649 | 0.67 | 0.641 | 0.625 | 0.5795
1 µM, coculture fibroblast: H6019 | 0.618 | 0.597 | 0.629 | 0.597 | 0.59 | 0.598 | 0.587 | 0.577 | 0.562
1 µM, coculture fibroblast: H6076 | 0.689 | 0.647 | 0.676 | 0.647 | 0.634 | 0.615 | 0.607 | 0.606 | 0.59
1 µM, coculture fibroblast: H6231 | 0.743 | 0.648 | 0.71209 | 0.6522 | 0.641 | 0.626 | 0.632 | 0.613 | 0.594
1 µM, coculture fibroblast: HADF | 0.607 | 0.633 | 0.639 | 0.646 | 0.674 | 0.713 | 0.679 | 0.685 | 0.639
1 µM, coculture fibroblast: HCFa | 0.63 | 0.635 | 0.637 | 0.646 | 0.659 | 0.696 | 0.652 | 0.642 | 0.593
1 µM, coculture fibroblast: HCPF | 0.666 | 0.634 | 0.676 | 0.6318 | 0.631 | 0.6142 | 0.605 | 0.584 | 0.575
1 µM, coculture fibroblast: HHSteC | 0.681 | 0.697 | 0.703 | 0.703 | 0.718 | 0.74 | 0.697 | 0.688 | 0.636
1 µM, coculture fibroblast: HMF | 0.737 | 0.632 | 0.632 | 0.603 | 0.582 | 0.554 | 0.55 | 0.529 | 0.51
1 µM, coculture fibroblast: HPFa | 0.693 | 0.63 | 0.622 | 0.617 | 0.633 | 0.667 | 0.613 | 0.611 | 0.57
1 µM, coculture fibroblast: HUF | 0.693 | 0.635 | 0.648 | 0.617 | 0.594 | 0.576 | 0.57 | 0.557 | 0.555
1 µM, coculture fibroblast: Hs5 | 0.694 | 0.6851 | 0.718 | 0.686 | 0.685 | 0.659 | 0.668 | 0.653 | 0.638
1 µM, coculture fibroblast: Hs27A | 0.631 | 0.628 | 0.676 | 0.693 | 0.723 | 0.79 | 0.735 | 0.738 | 0.667
1 µM, coculture fibroblast: Hs343T | 0.701 | 0.626 | 0.654 | 0.631 | 0.632 | 0.602 | 0.606 | 0.595 | 0.59
1 µM, coculture fibroblast: WS1 | 0.601 | 0.574 | 0.592 | 0.552 | 0.542 | 0.533 | 0.528 | 0.513 | 0.506
10 µM, coculture fibroblast: C12385 | 0.498 | 0.402 | 0.356 | 0.347 | 0.339 | 0.34 | 0.3 | 0.254 | 0.202
10 µM, coculture fibroblast: H6013 | 0.456 | 0.3572 | 0.317 | 0.341 | 0.336 | 0.33 | 0.276 | 0.221 | 0.147
10 µM, coculture fibroblast: H6019 | 0.563 | 0.4954 | 0.4372 | 0.406 | 0.4016 | 0.402 | 0.387 | 0.3549 | 0.323
10 µM, coculture fibroblast: H6076 | 0.53 | 0.404 | 0.269 | 0.168 | 0.0987 | 0.0586 | 0.0423 | 0.0255 | 0.0212
10 µM, coculture fibroblast: H6231 | 0.628 | 0.531 | 0.441 | 0.499 | 0.44 | 0.361 | 0.292 | 0.218 | 0.158
10 µM, coculture fibroblast: HADF | 0.416 | 0.305 | 0.28 | 0.321 | 0.3519 | 0.37726 | 0.329 | 0.294 | 0.209
10 µM, coculture fibroblast: HCFa | 0.484 | 0.379 | 0.298 | 0.335 | 0.361 | 0.384 | 0.331 | 0.282 | 0.182
10 µM, coculture fibroblast: HCPF | 0.626 | 0.5 | 0.452 | 0.322 | 0.259 | 0.165 | 0.0928 | 0.0364 | 0.00668
10 µM, coculture fibroblast: HHSteC | 0.527 | 0.483 | 0.472 | 0.503 | 0.49 | 0.483 | 0.403 | 0.356 | 0.257
10 µM, coculture fibroblast: HMF | 0.5483 | 0.428 | 0.3187 | 0.1888 | 0.17 | 0.102 | 0.0211 | 0.0291 | 0.0187
10 µM, coculture fibroblast: HPFa | 0.492 | 0.435 | 0.39 | 0.45 | 0.434 | 0.458 | 0.396 | 0.348 | 0.279
10 µM, coculture fibroblast: HUF | 0.536 | 0.426 | 0.422 | 0.4 | 0.37 | 0.347 | 0.3243 | 0.278 | 0.252
10 µM, coculture fibroblast: Hs5 | 0.641 | 0.537 | 0.433 | 0.379 | 0.366 | 0.256 | 0.228 | 0.144 | 0.0953
10 µM, coculture fibroblast: Hs27A | 0.511 | 0.467 | 0.492 | 0.589 | 0.555 | 0.5605 | 0.477 | 0.42 | 0.297
10 µM, coculture fibroblast: Hs343T | 0.531 | 0.408 | 0.299 | 0.214 | 0.174 | 0.112 | 0.0903 | 0.0393 | 0.0452
10 µM, coculture fibroblast: WS1 | 0.498 | 0.399 | 0.36 | 0.322 | 0.327 | 0.302 | 0.264 | 0.211 | 0.171
